# Data taken from PubChem BioAssay (EPA / NIEHS).
# The chains behind the UniProt entries cited, without tags or fusion partners.
# UniProt P04637, whole entry, looked up: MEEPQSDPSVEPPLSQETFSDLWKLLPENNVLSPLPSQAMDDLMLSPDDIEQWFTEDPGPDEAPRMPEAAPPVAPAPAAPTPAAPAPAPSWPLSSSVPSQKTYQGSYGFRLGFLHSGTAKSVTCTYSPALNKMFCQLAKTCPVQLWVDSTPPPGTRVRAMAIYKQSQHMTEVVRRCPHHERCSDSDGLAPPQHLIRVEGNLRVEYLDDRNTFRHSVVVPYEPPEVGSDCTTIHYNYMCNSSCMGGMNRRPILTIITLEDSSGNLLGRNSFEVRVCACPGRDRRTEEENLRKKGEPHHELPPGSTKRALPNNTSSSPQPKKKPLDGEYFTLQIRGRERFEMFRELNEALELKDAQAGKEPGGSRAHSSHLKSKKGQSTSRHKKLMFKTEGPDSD
# Values joined by “and” are separate entries in the source; they are usually repeats but may differ in a detail not shown here. Equal values may be shown once. Inconclusive means that the source gave no clear call. Such entries were picked first, then a sample of the others. Potencies beside an inconclusive call are fits to weak or partial responses and may not hold up. Active and inactive are the calls of the source. Rule for the calls: active = hit-call score of the fitted dose curve at least 0.9, where 1 is the maximum; inconclusive = response in the unintended direction; inactive = score below 0.9.
# Columns and labels:
# [1] = TOX21_p53_BLA_p4_viability: Viability Assessment in the Tox21 HCT-116 p53 Agonism Beta-lactamase Assay, Phase 4 (AID 2283597);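 note: hits lower the luminescence signal meaning cytotoxicity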
# Method in brief: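 ATP content by CellTiter-Glo luminescence, 30 min RT, read after the beta-lactamase ratio step. Cells: HCT116, 4000/well, compound added after 5 h, exposure 16 h at 37C. Signal loss = reduced viability.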
# [2] = target: Cellular tumor antigen p53 (Homo sapiens) (UniProt P04637); assay: TOX21_p53_BLA_p5_ratio: Tox21 HCT-116 p53 Agonism Beta-lactamase Assay, Ratio, Phase 5 (AID 2283599)
# Method in brief: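 Beta-lactamase reporter ratio (blue 460 nm over green 530 nm, 405 nm excitation) after 2 h CCF4-AM loading, in HCT-116 cells exposed 16 h at 37 C to compounds pinned at 217-fold dilution. Increases relative to DMSO baseline scored.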
# [3] = target: Cellular tumor antigen p53 (Homo sapiens) (UniProt P04637); assay: TOX21_p53_BLA_p4_ratio: Tox21 HCT-116 p53 Agonism Beta-lactamase Assay, Ratio, Phase 4 (AID 2283601)
# Method in brief: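 Signal is the blue/green (460nm/530nm) ratio of cleaved versus uncleaved CCF4-AM substrate, read after 2 h substrate loading. Cells were HCT116 carrying the p53-responsive beta-lactamase reporter, dosed 16 h at 37C, 5% CO2; CellTiter-Glo measured in parallel.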
# [4] = TOX21_p53_BLA_p5_viability: Viability Assessment in the Tox21 HCT-116 p53 Agonism Beta-lactamase Assay, Phase 5 (AID 2283600)
# Method in brief: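 ATP luminescence (CellTiter-Glo, 30 min, RT) served as the viability read-out, with loss of signal indicating cytotoxicity. Compounds in DMSO were pinned at a 217-fold dilution onto 4000 cells/well and incubated 16 h, 37C.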
# [5] = Tanguay_ZF_120hpf_AXIS_legacy: (Legacy) Oregon State University Tanguay Lab 120 Hour Post-fertilization zebrafish Assay for Body Axis Malformation (AID 2283635);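 note: potency for an increased fraction of larvae scored with body axis malformation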
# Method in brief: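 Embryos: 5D wild-type, pronase-dechorionated 4 hpf; static exposure 6–120 hpf, 28C, sealed, dark, 1 embryo/well, 0.64% DMSO. 120 hpf axis malformation scored present/absent; dead embryos excluded. Analysed as gain of signal vs DMSO.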
# [6] = Tanguay_ZF_120hpf_SNOU_legacy: (Legacy) Oregon State University Tanguay Lab 120 Hour Post-fertilization zebrafish Assay for Snout Malformation (AID 2283637)
# Method in brief: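 Binary snout-malformation call at 120 hpf in wild-type 5D embryos, chorion removed by pronase, under static exposure from 6 hpf at 28C (0.64% DMSO). Embryos dying by 24 or 120 hpf excluded.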
smiles,measurement,setting,value
Cc1ccc(C)c(O)c1,AC50,[1],inconclusive: 47.2 µM and inconclusive: 45.1 µM
same,AC50,[2],inconclusive: 45.1 µM
COC(=O)c1ccccc1C,AC50,[1],inconclusive: 46.1 µM
same,AC50,[2],inconclusive: 46.1 µM
C=C[Si](OCCOC)(OCCOC)OCCOC,AC50,[1],inconclusive: 46.3 µM
same,outcome,[1],inactive
same,AC50,[3],inconclusive: 46.1 µM and inconclusive: 46.3 µM
N#Cc1cscn1,outcome,[1],inactive
same,AC50,[2],inconclusive: 46.1 µM
O=C(/C=C/C=C/c1ccc2c(c1)OCO2)N1CCCCC1,AC50,[1],inconclusive: 46.1 µM
same,outcome,[1],inactive
same,AC50,[4],inconclusive: 46.1 µM and inconclusive: 46.2 µM
same,AC50,[3],inconclusive: 46.1 µM
same,outcome,[3],inactive
CCCCOC(=O)C(C)OC(=O)CCC (stereo not drawn),AC50,[1],inconclusive: 0.149 µM
same,AC50,[2],inconclusive: 46.1 µM
O=C(O)c1cc(Cl)cc([N+](=O)[O-])c1Cl,outcome,[1],inactive
same,AC50,[2],inconclusive: 46.1 µM
CC(C)=CCC/C(C)=C/CO,AC50,[1],inconclusive: 14.3 µM and inconclusive: 46.6 µM
same,outcome,[1],inactive
same,AC50,[4],inconclusive: 19.3 nM and inconclusive: 46.6 µM
same,AC50,[5],active: 23.6 µM
CN(C)c1ccc(C=O)cc1,AC50,[1],inconclusive: 46.1 µM
same,AC50,[2],inconclusive: 87.2 µM
CCCCCOC(=O)CCC,AC50,[1],inconclusive: 46.1 µM
same,outcome,[2],inactive
CC(C)=CCC/C(C)=C/COC=O,outcome,[1],inactive
same,outcome,[2],inactive
CCNc1ccccc1,AC50,[1],inconclusive: 6.96 µM
same,outcome,[1],inactive
same,outcome,[3],inactive
CCCCCC/C=C/CCCCCCCC(=O)O,AC50,[1],inconclusive: 86.3 µM
same,outcome,[1],inactive
same,outcome,[3],inactive
O=S(=O)(O)c1ccc(O)c2ncccc12,AC50,[1],inconclusive: 45.7 µM
same,outcome,[2],inactive
C[C@]12CCC(=O)C=C1CC[C@@H]1[C@@H]2C(=O)C[C@@]2(C)[C@H]1CC[C@]2(O)C(=O)CO,AC50,[1],inconclusive: 0.0439 µM
same,AC50,[2],inconclusive: 86.7 µM
CC1(C)NC(=O)NC1=O,AC50,[1],inconclusive: 71.8 µM
same,outcome,[1],inactive
same,AC50,[4],inconclusive: 46.3 µM and inconclusive: 47.4 µM
same,AC50,[5],inconclusive: 170 µM
same,AC50,[6],inconclusive: 91.5 µM
CCCCNC(=S)NCCCC,outcome,[1],inactive
same,AC50,[2],inconclusive: 46.1 µM
CC(C)CCCC(C)CCO (stereo not drawn),AC50,[1],inconclusive: 46.1 µM
same,outcome,[2],inactive
OC1CCCCC1,AC50,[1],inconclusive: 46.1 µM
same,outcome,[1],inactive
same,AC50,[3],inconclusive: 46.1 µM and inconclusive: 48 µM
O=C(O)CC(C(=O)O)C(CC(=O)O)C(=O)O (stereo not drawn),AC50,[1],inconclusive: 45.4 µM
same,outcome,[1],inactive
same,AC50,[3],inconclusive: 45.4 µM
COC(=O)/C=C\C(=O)OC,AC50,[1],inconclusive: 46 µM
same,outcome,[2],inactive
CCC(C(=O)NC(N)=O)c1ccccc1 (stereo not drawn),AC50,[1],inconclusive: 46.1 µM and inconclusive: 23 µM
same,AC50,[2],inconclusive: 46.1 µM
CCN(CCN)c1cccc(C)c1,AC50,[1],inconclusive: 46.1 µM
same,outcome,[1],inactive
same,AC50,[4],inconclusive: 0.0248 µM
same,outcome,[4],inactive
same,AC50,[3],inconclusive: 46.1 µM and inconclusive: 46.5 µM
N=C1N=C(N)c2ccccc21,AC50,[1],inconclusive: 74.2 µM
same,AC50,[2],active: 13.3 µM
O=C(O)c1ccc([N+](=O)[O-])cc1,AC50,[1],inconclusive: 46 µM
same,AC50,[2],inconclusive: 46 µM
Nc1c(Cl)cc(Cl)cc1[N+](=O)[O-],outcome,[1],inactive
same,AC50,[2],inconclusive: 2.22 µM
CC1=NC(C)OC1C (stereo not drawn),AC50,[1],inconclusive: 0.0209 µM
same,outcome,[2],inactive
O=C1c2cccc(O)c2C(=O)c2c(O)cc(CO)cc21,outcome,[1],inactive
same,AC50,[2],active: 33.3 µM
CCCCC(CC)CO (stereo not drawn),AC50,[1],inconclusive: 86.8 µM and inconclusive: 2.77 µM
same,AC50,[2],inconclusive: 45.6 µM
same,outcome,[2],inactive
same,AC50,[3],inconclusive: 45.6 µM
CCCCCCCCCC/C=C/C1CC(=O)OC1=O (stereo not drawn),outcome,[1],inactive
same,outcome,[2],inactive
same,AC50,[4],inconclusive: 46.3 µM
CCCC(=O)C(CC)Sc1ccoc1C (stereo not drawn),outcome,[1],inactive
same,AC50,[2],inconclusive: 46.1 µM
same,outcome,[4],inactive
F[Si-2](F)(F)(F)(F)F,AC50,[1],inconclusive: 23 µM
same,AC50,[2],inconclusive: 46.1 µM
same,outcome,[2],inactive
same,AC50,[4],inconclusive: 46.1 µM
Cc1ncc([N+](=O)[O-])n1CCO,AC50,[1],inconclusive: 86.7 µM
same,AC50,[2],inconclusive: 23 µM
CCC(=O)Oc1ccc(/C(CC)=C(\CC)c2ccc(OC(=O)CC)cc2)cc1,AC50,[1],inconclusive: 46.1 µM
same,AC50,[2],active: 5.08 µM
same,outcome,[4],inactive
CCOC(=O)c1ccc(N)cc1,AC50,[1],inconclusive: 46.1 µM and inconclusive: 10.3 µM
same,outcome,[2],inactive
same,AC50,[4],inconclusive: 46.1 µM and inconclusive: 10.3 µM

# Random excerpt: four records from the list.
smiles,measurement,setting,value
CC1(C)NC(=O)NC1=O,AC50,[5],inconclusive: 170 µM
OC1CCCCC1,outcome,[1],inactive
Cc1ncc([N+](=O)[O-])n1CCO,AC50,[1],inconclusive: 86.7 µM
CCCCC(CC)CO (stereo not drawn),AC50,[3],inconclusive: 45.6 µM
